The data set deals with ORC hexamer wild-type (Orc1-TEV-His/Orc2/3/4/5/6) (Saccharomyces cerevisiae). Put plainly: EMSA. As to conditions: 1 mM ATP, GC-rich competitor DNA, 25 mM HEPES-KOH pH 7.6, 100 mM K glutamate, 5 mM Mg acetate, 5 mM CaCl2, 5 mM DTT, 5% glycerol, 0.1% Triton X-100, 2 mg/ml BSA, 1.6 nM dsDNA or 3 nM ssDNA, recombinant protein, protein details: TEV-His on Orc1 (C-terminal by name), label: Cy5-ddUTP (terminal transferase), probe letters rebuilt from the primers and the genome. On the technique in general: In EMSA bound probe runs differently from free probe, usually more slowly.

The exact form of at least one protein or probe is not confirmed. At least one verdict rests on a figure or table, not on a statement of the authors.

The record followed here is paper PMC4601075, “Specific binding of eukaryotic ORC to DNA replication origins depends on highly conserved basic residues” (Scientific Reports, 2015).

Regarding “CCCACATGTCAATTTAGTATATTACTGTATATCTAGTTCATTCTTCAAAATAAAGAATGCATAACCATTTTTTTATGTTTTTTCCGGAATTGGCTAAATTCACAAAAAAAAAGAGCATAAAGCGAATTGAATTGTCTCGCCAAGAAAACGCACTGAGAGGACGATTGATCCTCCAGACAAGATCGGAATTTTTACTTTTCTGTTTTTAACGACGTCGG (double strand) [ARS609 fragment]”, the binding result is “binds”.

“CCGACGTCAGATCTTAATTTATCTCATGAAGTAATGATACCTCAGCGATGTGCTCGCTCGTTAGTATGCTTCATAAATTCATTATTATTTTTTTTTGGAAGTGTTTTTCGACAAAAGTTGCATTTTTACGAAGGATATGTAAACTCAAGAAGTACTAAATAAATATAAATACAATTCGAAAATTTGAAAAAAGTAGGAGACAACACTTTCCTTCCTCACGAAGAAGTTAAGCTTACATGTGGG (double strand) [ARS306 fragment]”: the binding result is recorded as “binds”.
